Assay results taken from paper doi:10.1101/680967.
Results are given in words; binding and its absence hold for the method and conditions named. Binding seen in cells or lysates may run through a third protein. Some binding calls cover weakened binding; strength is not graded here.

Amino acid sequences for entries named in this document (tags omitted).
UniProt P49327: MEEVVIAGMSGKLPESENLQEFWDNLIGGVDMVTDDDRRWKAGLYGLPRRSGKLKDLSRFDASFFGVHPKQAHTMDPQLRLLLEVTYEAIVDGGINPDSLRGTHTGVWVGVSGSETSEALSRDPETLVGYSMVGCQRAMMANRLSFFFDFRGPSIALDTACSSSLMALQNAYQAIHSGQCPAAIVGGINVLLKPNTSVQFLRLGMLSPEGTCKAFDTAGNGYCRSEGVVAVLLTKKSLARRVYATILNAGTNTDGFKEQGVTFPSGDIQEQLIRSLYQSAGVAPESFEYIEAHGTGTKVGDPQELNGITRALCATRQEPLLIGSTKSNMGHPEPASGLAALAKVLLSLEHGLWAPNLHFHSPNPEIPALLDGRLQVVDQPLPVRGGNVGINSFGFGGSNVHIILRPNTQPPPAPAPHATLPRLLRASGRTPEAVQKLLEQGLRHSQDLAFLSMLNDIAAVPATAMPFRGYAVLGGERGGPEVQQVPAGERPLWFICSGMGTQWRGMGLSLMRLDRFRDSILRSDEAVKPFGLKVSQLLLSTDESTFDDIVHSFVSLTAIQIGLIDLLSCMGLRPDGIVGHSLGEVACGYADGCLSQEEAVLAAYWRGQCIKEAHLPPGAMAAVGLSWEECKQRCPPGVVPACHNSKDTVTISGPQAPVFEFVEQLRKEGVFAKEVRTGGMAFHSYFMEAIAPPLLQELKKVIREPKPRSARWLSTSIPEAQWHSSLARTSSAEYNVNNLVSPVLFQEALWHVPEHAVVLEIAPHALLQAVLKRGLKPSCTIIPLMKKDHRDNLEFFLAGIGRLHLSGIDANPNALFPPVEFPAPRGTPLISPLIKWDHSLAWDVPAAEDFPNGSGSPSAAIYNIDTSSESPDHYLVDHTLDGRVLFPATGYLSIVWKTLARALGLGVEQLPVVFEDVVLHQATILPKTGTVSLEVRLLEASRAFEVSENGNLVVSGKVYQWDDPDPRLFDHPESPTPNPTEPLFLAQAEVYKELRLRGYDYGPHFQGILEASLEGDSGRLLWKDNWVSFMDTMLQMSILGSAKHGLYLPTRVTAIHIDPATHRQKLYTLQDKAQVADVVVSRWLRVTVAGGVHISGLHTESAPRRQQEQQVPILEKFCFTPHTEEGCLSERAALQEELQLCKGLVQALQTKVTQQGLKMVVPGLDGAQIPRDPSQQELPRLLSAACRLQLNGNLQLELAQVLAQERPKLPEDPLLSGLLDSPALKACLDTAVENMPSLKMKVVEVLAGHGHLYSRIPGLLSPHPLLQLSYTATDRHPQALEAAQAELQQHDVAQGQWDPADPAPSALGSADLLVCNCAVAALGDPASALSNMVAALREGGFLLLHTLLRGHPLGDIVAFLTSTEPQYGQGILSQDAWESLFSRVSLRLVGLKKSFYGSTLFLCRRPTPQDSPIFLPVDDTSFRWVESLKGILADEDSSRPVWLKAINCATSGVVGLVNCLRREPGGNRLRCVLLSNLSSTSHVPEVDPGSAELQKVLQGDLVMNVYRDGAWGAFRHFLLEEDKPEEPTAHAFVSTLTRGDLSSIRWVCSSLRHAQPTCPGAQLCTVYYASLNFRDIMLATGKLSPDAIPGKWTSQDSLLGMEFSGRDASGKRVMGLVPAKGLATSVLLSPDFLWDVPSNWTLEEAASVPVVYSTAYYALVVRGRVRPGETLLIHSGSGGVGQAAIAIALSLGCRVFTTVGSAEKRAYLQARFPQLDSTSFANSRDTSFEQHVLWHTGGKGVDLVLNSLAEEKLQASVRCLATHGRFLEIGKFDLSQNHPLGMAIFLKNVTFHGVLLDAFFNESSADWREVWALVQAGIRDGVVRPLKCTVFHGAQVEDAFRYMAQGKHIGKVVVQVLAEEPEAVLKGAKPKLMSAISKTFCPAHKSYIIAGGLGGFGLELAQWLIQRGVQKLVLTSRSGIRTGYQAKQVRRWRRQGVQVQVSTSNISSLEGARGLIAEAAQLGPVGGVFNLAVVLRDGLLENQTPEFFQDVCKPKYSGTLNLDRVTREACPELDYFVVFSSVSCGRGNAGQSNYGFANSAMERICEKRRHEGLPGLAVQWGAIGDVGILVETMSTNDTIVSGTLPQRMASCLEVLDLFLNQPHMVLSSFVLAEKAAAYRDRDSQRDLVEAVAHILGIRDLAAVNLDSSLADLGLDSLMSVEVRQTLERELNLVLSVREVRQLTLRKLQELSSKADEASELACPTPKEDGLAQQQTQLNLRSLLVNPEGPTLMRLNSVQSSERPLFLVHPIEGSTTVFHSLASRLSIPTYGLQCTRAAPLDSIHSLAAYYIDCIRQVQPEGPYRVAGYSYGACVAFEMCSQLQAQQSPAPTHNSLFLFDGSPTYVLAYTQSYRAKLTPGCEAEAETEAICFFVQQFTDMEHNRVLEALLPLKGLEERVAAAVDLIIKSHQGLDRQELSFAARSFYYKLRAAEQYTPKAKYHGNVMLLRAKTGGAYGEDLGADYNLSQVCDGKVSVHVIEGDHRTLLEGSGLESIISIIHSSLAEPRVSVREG

Target: FASN (fatty acid synthase) (human (endogenous in RKO and SW620)) (UniProt P49327)
Experiment: co-IP

binding: binds
B1: APOC2 (apolipoprotein C2), endogenous (protein, UniProt P02655 23-101)
chain: TQQPQQDEMPSPTFLTQVKESLSSYWESAKTAAQNLYEKTYLPAVDEKLRDLYSKSTAAMSTYTGIFTDQVLSVLKGEE
